Drug screen on melanoma cell lines: apoptosis marker

Data from the primary screen of doi:10.1371/journal.pone.0140310, rounded.

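Human melanoma cells were exposed to a pair of drugs for 72 h in 1,536-well plates and read by automated microscopy after fixing and staining. Each value is the cleaved-PARP-positive fraction of nuclei relative to DMSO-treated wells, in %, so that 100 equals the control and higher values mean more apoptosis. Every drug was used at one fixed concentration, the higher of two screened. No replicate spread is given; individual values may be noisy. The marker varies much from line to line, for technical or biological reasons.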
This is part of the screen, not chosen by result.

Drugs:
CX-4945: O=C(O)c1ccc2c(c1)nc(Nc1cccc(Cl)c1)c1ccncc12 at 2 µM
KU-0063794: COc1ccc(-c2ccc3c(N4CCOCC4)nc(N4C[C@@H](C)O[C@@H](C)C4)nc3n2)cc1CO at 0.1 µM
dovitinib: CN1CCN(c2ccc3nc(-c4c(N)c5c(F)cccc5[nH]c4=O)[nH]c3c2)CC1 at 0.5 µM
TCS401: O=C(O)C(=O)Nc1sc2c(c1C(=O)O)CCNC2 at 8.33 µM
CHIR-265: Cn1c(Nc2ccc(C(F)(F)F)cc2)nc2cc(Oc3ccnc(-c4ncc(C(F)(F)F)[nH]4)c3)ccc21 at 0.4 µM
sunitinib: CCN(CC)CCNC(=O)c1c(C)[nH]c(/C=C2\C(=O)Nc3ccc(F)cc32)c1C at 2 µM
vismodegib: CS(=O)(=O)c1ccc(C(=O)Nc2ccc(Cl)c(-c3ccccn3)c2)c(Cl)c1 at 5 µM
OSI-906: C[C@]1(O)C[C@@H](c2nc(-c3ccc4ccc(-c5ccccc5)nc4c3)c3c(N)nccn32)C1 at 2 µM
vatalanib: Clc1ccc(Nc2nnc(Cc3ccncc3)c3ccccc23)cc1 at 10 µM
PF-04217903: OCCn1cc(-c2cnc3nnn(Cc4ccc5ncccc5c4)c3n2)cn1 at 5 µM
AS-252424: O=C1NC(=O)/C(=C/c2ccc(-c3ccc(F)cc3O)o2)S1 at 5 µM
nilotinib: Cc1cn(-c2cc(NC(=O)c3ccc(C)c(Nc4nccc(-c5cccnc5)n4)c3)cc(C(F)(F)F)c2)cn1 at 1 µM
nutlin-3: COc1ccc(C2=N[C@@H](c3ccc(Cl)cc3)[C@@H](c3ccc(Cl)cc3)N2C(=O)N2CCNC(=O)C2)c(OC(C)C)c1 at 0.5 µM
embelin: CCCCCCCCCCCC1=C(O)C(=O)C=C(O)C1=O at 6 µM
L-779450: Oc1cc(-c2nc(-c3ccccc3)[nH]c2-c2ccncc2)ccc1Cl at 1 µM
AZD7762: NC(=O)Nc1cc(-c2cccc(F)c2)sc1C(=O)N[C@H]1CCCNC1 at 0.1 µM
fludarabine: Nc1nc(F)nc2c1ncn2[C@@H]1O[C@H](CO)[C@@H](O)[C@@H]1O at 1 µM
PLX4720: CCCS(=O)(=O)Nc1ccc(F)c(C(=O)c2c[nH]c3ncc(Cl)cc23)c1F at 0.4 µM

Drugs: dovitinib + embelin
SK-MEL-2: 306
COLO 800: 109
MZ2-MEL: 303
RPMI-7951: 239
WM451Lu: 188
LOX IMVI: 199
WM115: 110
SK-MEL-30: 177

Drugs: vismodegib + AZD7762
SK-MEL-2: 323
COLO 800: 130
MZ2-MEL: 39.5
RPMI-7951: 170
WM451Lu: 280
LOX IMVI: 155
WM115: 222
SK-MEL-30: 161

Drugs: KU-0063794 + CHIR-265
SK-MEL-2: 392
COLO 800: 63.0
MZ2-MEL: 382
RPMI-7951: 418
WM451Lu: 665
LOX IMVI: 153
WM115: 1030
SK-MEL-30: 142

Drugs: CHIR-265 + nilotinib
SK-MEL-2: 305
COLO 800: 123
MZ2-MEL: 95.0
RPMI-7951: 126
WM451Lu: 1040
LOX IMVI: 139
WM115: 925
SK-MEL-30: 168

Drugs: TCS401 + vatalanib
SK-MEL-2: 38.2
COLO 800: 216
MZ2-MEL: 195
RPMI-7951: 177
WM451Lu: 113
LOX IMVI: 112
WM115: 112
SK-MEL-30: 71.5

Drugs: AZD7762 + CX-4945
SK-MEL-2: 106
COLO 800: 67.4
MZ2-MEL: 378
RPMI-7951: 244
WM451Lu: 169
LOX IMVI: 79.4
WM115: 341
SK-MEL-30: 203

Drugs: nilotinib + CX-4945
SK-MEL-2: 131
COLO 800: 73.4
MZ2-MEL: 164
RPMI-7951: 388
WM451Lu: 43.3
LOX IMVI: 165
WM115: 239
SK-MEL-30: 42.8

Drugs: vatalanib + AS-252424
SK-MEL-2: 66.5
COLO 800: 120
MZ2-MEL: 95.4
RPMI-7951: 165
WM451Lu: 51.6
LOX IMVI: 93.7
WM115: 52.0
SK-MEL-30: 45.7

Drugs: vatalanib + sunitinib
SK-MEL-2: 256
COLO 800: 95.8
MZ2-MEL: 105
RPMI-7951: 271
WM451Lu: 72.0
LOX IMVI: 147
WM115: 296
SK-MEL-30: 23.5

Drugs: AZD7762 + nilotinib
SK-MEL-2: 145
COLO 800: 228
MZ2-MEL: 241
RPMI-7951: 165
WM451Lu: 247
LOX IMVI: 104
WM115: 144
SK-MEL-30: 229

Drugs: dovitinib + AZD7762
SK-MEL-2: 351
COLO 800: 69.6
MZ2-MEL: 418
RPMI-7951: 278
WM451Lu: 94.2
LOX IMVI: 88.5
WM115: 140
SK-MEL-30: 102

Drugs: L-779450 + nutlin-3
SK-MEL-2: 544
COLO 800: 102
MZ2-MEL: 53.0
RPMI-7951: 143
WM451Lu: 944
LOX IMVI: 126
WM115: 266
SK-MEL-30: 99.8

Drugs: TCS401 + KU-0063794
SK-MEL-2: 135
COLO 800: 144
MZ2-MEL: 230
RPMI-7951: 61.2
WM451Lu: 206
LOX IMVI: 37.9
WM115: 115
SK-MEL-30: 151

Drugs: PLX4720 + AS-252424
SK-MEL-2: 96.1
COLO 800: 73.3
MZ2-MEL: 205
RPMI-7951: 45.1
WM451Lu: 564
LOX IMVI: 156
WM115: 132
SK-MEL-30: 85.6

Drugs: vismodegib + L-779450
SK-MEL-2: 555
COLO 800: 92.1
MZ2-MEL: 160
RPMI-7951: 56.5
WM451Lu: 411
LOX IMVI: 271
WM115: 133
SK-MEL-30: 110

Drugs: sunitinib + PF-04217903
SK-MEL-2: 83.7
COLO 800: 257
MZ2-MEL: 29.6
RPMI-7951: 43.4
WM451Lu: 102
LOX IMVI: 209
WM115: 145
SK-MEL-30: 165

Drugs: OSI-906 + CHIR-265
SK-MEL-2: 554
COLO 800: 108
MZ2-MEL: 374
RPMI-7951: 155
WM451Lu: 154
LOX IMVI: 78.2
WM115: 485
SK-MEL-30: 189

Drugs: PF-04217903 + fludarabine
SK-MEL-2: 1400
COLO 800: 130
MZ2-MEL: 91.6
RPMI-7951: 71.2
WM451Lu: 228
LOX IMVI: 93.6
WM115: 82.8
SK-MEL-30: 1670

Drugs: embelin + L-779450
SK-MEL-2: 473
COLO 800: 171
MZ2-MEL: 46.8
RPMI-7951: 112
WM451Lu: 91.4
LOX IMVI: 92.9
WM115: 164
SK-MEL-30: 122

Drugs: dovitinib + AS-252424
SK-MEL-2: 260
COLO 800: 261
MZ2-MEL: 222
RPMI-7951: 106
WM451Lu: 95.1
LOX IMVI: 183
WM115: 104
SK-MEL-30: 72.2

Drugs: nutlin-3 + AS-252424
SK-MEL-2: 106
COLO 800: 133
MZ2-MEL: 147
RPMI-7951: 44.7
WM451Lu: 39.9
LOX IMVI: 101
WM115: 30.4
SK-MEL-30: 61.4

Drugs: AS-252424 + sunitinib
SK-MEL-2: 114
COLO 800: 260
MZ2-MEL: 218
RPMI-7951: 34.4
WM451Lu: 533
LOX IMVI: 119
WM115: 64.4
SK-MEL-30: 148

Drugs: nilotinib + OSI-906
SK-MEL-2: 213
COLO 800: 204
MZ2-MEL: 130
RPMI-7951: 169
WM451Lu: 91.8
LOX IMVI: 33.1
WM115: 200
SK-MEL-30: 61.6

Drugs: KU-0063794 + nilotinib
SK-MEL-2: 90.6
COLO 800: 63.8
MZ2-MEL: 27.1
RPMI-7951: 61.2
WM451Lu: 187
LOX IMVI: 102
WM115: 38.2
SK-MEL-30: 64.9

Drugs: PF-04217903 + embelin
SK-MEL-2: 69.0
COLO 800: 70.0
MZ2-MEL: 148
RPMI-7951: 134
WM451Lu: 34.3
LOX IMVI: 70.4
WM115: 56.5
SK-MEL-30: 66.8

Drugs: CX-4945 + fludarabine
SK-MEL-2: 10500
COLO 800: 144
MZ2-MEL: 153
RPMI-7951: 242
WM451Lu: 138
LOX IMVI: 162
WM115: 158
SK-MEL-30: 2570

Some entries from above, unchanged:

- vatalanib + AS-252424 | SK-MEL-2: 66.5; COLO 800: 120; MZ2-MEL: 95.4; RPMI-7951: 165; WM451Lu: 51.6; LOX IMVI: 93.7; WM115: 52.0; SK-MEL-30: 45.7
- vismodegib + AZD7762 | SK-MEL-2: 323; COLO 800: 130; MZ2-MEL: 39.5; RPMI-7951: 170; WM451Lu: 280; LOX IMVI: 155; WM115: 222; SK-MEL-30: 161